In the series the test system is tumor lesions over organs at risk. The series can be described thus: Individual therapeutic index (TI) and relative therapeutic index (rTI). The series is classed as in vivo, human. The following applies: mean ± SD, 6 patients.

For the substance [^177Lu]Lu-PSMA-617, the “Mean TI-kidney” value (mean tumor-absorbed dose over kidney dose) came to 5.28 ± 5.13. Also, the “Mean TI-parotid” value (mean tumor-absorbed dose over parotid gland dose) came out at 12.51 ± 18.09.
